Experimental data: PMC11036802

T1: PfEAF2::GFP (endogenous PfEAF2 tagged with GFP) (P. falciparum (endogenous in 3D7 parasites)) (UniProt C6KTC1)
T1 sequence: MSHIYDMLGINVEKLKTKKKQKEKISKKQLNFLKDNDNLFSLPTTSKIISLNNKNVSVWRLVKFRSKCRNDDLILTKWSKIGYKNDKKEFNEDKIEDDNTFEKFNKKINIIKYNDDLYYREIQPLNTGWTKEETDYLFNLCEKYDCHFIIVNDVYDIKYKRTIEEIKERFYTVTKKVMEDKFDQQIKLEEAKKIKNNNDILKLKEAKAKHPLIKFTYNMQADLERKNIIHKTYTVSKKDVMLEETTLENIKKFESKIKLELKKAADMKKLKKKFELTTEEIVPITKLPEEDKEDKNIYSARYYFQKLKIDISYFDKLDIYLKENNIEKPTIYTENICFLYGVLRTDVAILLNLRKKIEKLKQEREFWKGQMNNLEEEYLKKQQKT

B1: PfMYST (protein, UniProt Q8III2 1-608)
chain: MVLGGKNENKVNVIKGAGSIGKYIMKENGSKIKEVGEWNNSSENENSDNNNNDREDNIKEKVDNNNKNDDNNNNDREDNIKEKVDNNNNNDDNNNDNNNNNKSDNNNNKSDNNNNKSDNYNNKIGDVSNIPSTNTSTVSNKIQGKGSVSYKSKEKTGDHSSNNKNTKGNNNKVRTSGKVINSLSKYSDSYALIFPNALPVKQVLWGLDPLNKVWRYCSIVYARPKNKVLNDTNFMFPLNMNKNEIINKVNNELNNNNSVSMSEGDYDYYVHWEKFDRRLDCWLAYENLRLLDKEPDDGLPLIKDNDNVSDHEHAGIDKEYLREHEENTKLKTINQIRFGKYLIDTWYFSPYPKEYQNIDILYICEFCLSFFKEYSELKRHIEKCEIRHPPGNEIYREEKISIFEIDGSYFRIYCENLCFLSKLFLDHKTLKHRVNLFLFYVITEYDEYGYHITGYFSKEKYSKNNVSCILTLPQHQKKGYGKFLINFSYFLSQTEKRTGTPERPLSDLGVASYMAYWYETILKVLINYEQLSIQELSEITSIETNDIISCLEEKDIFKNSLNGLDSFYYINPKQLEFILNKLKQTNNTQLSKNKLHWVSYDYYLALYE
B2: PfRVB1 (protein, UniProt Q8IIU3 1-475)
chain: MEINISNITNSSNNKKERVNIHSHIKGLGVNTNIYLHENEISLSDEKYSMFFDNSCGLVGQFKAREASLFLVDLIKQKKLAGKCILLAGPSGSGKSALAIGISREINRKMPFVFLSGSEVYSNEIKKTEVILEAFRKSIHIKIKEEKLVYEGEVVDMVVEENECLYSLNKAKQINAIIITLKSVKGSKTLRLAPKIHEQIAREKIKIGDVIYIETNTGHVKRLGRCNDYAKEYDIEFDEYVSLPKGEVHKKKEVVQQISLHDIDLANANPTVGEDLASVLNSYLRPKKTEITEKLRVEINKTVNKFLESGLAEIIPGVLYIDEAHMLDIECFSYLNRAIESPLAPILIMATNRGICTVKGTDNIEPHGIPVDLLDRLIIIKTFPYTLKEIVQILALRAQTEKINITEEGMNYLAKIGIQSSLRFAMLLLEPSRILATLEGNTIIDIKHIEQADELFMDAKTSAHRVVDQSNKFVN
B3: PfRVB2 (protein, UniProt Q8ID85 1-483)
chain: MKLEEVKDIQKIERIGAHSHIRGLGLNDCLDARYCSEGMIGQMSARKAAGIVLRMIKEGRISGRAILLAGQPGTGKTAIAMGIAKALGEDTPFTHISGSEVYSLEMSKTEALTQAFRRSIGVRVKEESEVIEGEVVEIEIEKFNERDINNKNKKLGKMILKTTEMETLYDLGSKMIEALQKENITAGDVICIDKGTGKITKIGKSFARSKDYDAMDPNTLFVQCPEGELQKRKEVVHTVTLHDIDAINSRTQGFLALFSGDTGEIKNEIREHIDMKINEWQEDEKAEIVPGVLFIDEVHMLDIECFSYLNRALESEQSPIVIMATNRGITHIRGTDYKAPHGIPLDLLDRTLIIPTYPYKHQDILKILEQRAEEEDVDIDEYAKELLCKIASESSLRYALHLITLANLVSKKRKATEVTVQDVRRVYNLFIDVKRSTQYLIEYQNEFMFSELPKEELSVKEEDSSEEKRELHEKNSENSSTSN
B4: PfSWC2 (protein, UniProt Q8IKJ7 1-705)
chain: MTKKRGDGVKSISFVLEKESNNIMFDKINEEQDETEEESEMNVDESSENEYLENVSEENESGDNQTGENDSEEEDSEEDEDYELKNYGIALELPQRKNRGKNMKKLIGEDLEKDEQFWNDSIWEEEEIDEEYVNSEGEDEYVDITDSDFDDDEDNEEDEEEEVDDDEQNKRGARRHSIEYEERKNNNKKNFAYLEKLKKEKQNKIMKYNLMKQKQNELKKNKQLISNKSKKSEDDAEEEQKEEVIKTKEQLKEERRLKKKKKLEQAYLYLNRSTRDTTRRKTEYMEKVFEMRKIKKENRFKKFGARRREKKNMQREMTREERLEEAKITEQYNIQSLLQLQAWEEEKKKYIENKKVIHYKPQNVFISFKYSKDNIFPTNEKLTYTQNLYDYYLYNENRTIKNDIMNQVKKEINVNIINNKQIVKVEQELHNNHEENINSQKKNSSMSINIPPPIIPDNKEKQINNDKNTILSNRNLNDNTNDYPNDYPNDYPNDNTKDEEKNGLILNPMNLENLDQCEDLNIQYLSQIDDINFDNLNKNKSNNNNNNNILNSNNENMYDDNKNKSNVLNQDIKKNKILAIPNYEEKQYYIVTNENELNIYSNFNDQKDNIKELKNQKQEKQKICAITNLEGKYFDPLTQQYYNNAEAFKKLRLYYHQISYNNLNKDICLTVKHFKNKLAEIEQYVNSNNNHNSCNDIPCNNNVKH
B5: PfARP6 (protein, UniProt Q8IBQ9 1-1032)
chain: MSAPVNIDIPKLILDNGAGLIKGGILPSYSQIEGSLCEEIEPKFILPNCVGQIRKKNIFHISDSCQSICEYFCHRPHVDGLLLDLELETKIWEKIFSCRNTVGGKINEMGLCVTESYLTPAYIKQGVIELLFEYFNMNQIVIVSSQTMLPFSYIGLNLGQYDILNPPIYRSRSSITKKVDQVIKRRRRSENCDIDMNKLDSSKDNMMENNLVTDSVINIKKLGSMDKTNEENVNSMNSVNNVNNFIDDNSYESKKIRLSQESVDHNKFNENKGDPINIQKDNVFAQDDDKNIEDVEKYENSGHTFEKRRYNKKNTKSDVNIFTNKHIYLKNIECYNKYSHKLYIDDKYQGDNWEDFYFNSFFNLNNYNNNNIYDDDNNNNNYLFEGLKTHAKSYKFNNNNVVRTLYDNNYLGKNFSRQDPNFIIPEKVDLYRNYYGKNFQDIKMFKKNYRNKYINNFYKNIINGNYNLSLRNPCALYIDVGFSHTYVLPYIEYKLIEYAVLRTKISGSILNSYLKSTLSYKHVNLEHNELLVENIKERACYVSLDYLKELEKEKTRLENIKNQRIKDKLDMRAEILMKELEEEEAQGKGERDKEKKKEMDTNMEKKKMKKKKKKKESDLLTNSLVKEDESNSTINDMKVNEKDNSDVTEYKENSSNSYDKKMNNILTKKKNDSCGSSLSVSNKSDDDMYIKKRRTCNVEEGGVDITEDQSYMSDLKSNVSVDKSRKSSRSNINVDKSYTNDEDNKSNYNNNSDDNNNNSDDNNKYSDDNNKYSDDSNEYSDDSNNNNNNNNKYSDDSNKYSDDNNKYNIDKCNGRKNKKLQPHLSYQYKLIDYNNVSKRQINKVFNTLKSNYNNNCIYIDSDYDYKEEFSNFIIDDKDDNMNIKDMSIKVGDSSKGKEDVINLTNERIGIPEILFNPQDINLEHCSIVELVYRCISLLPKHIQKYFVSQIYISGGSTKFRNFKHRLYKELRQVFPSDWDINIYSHKNSLYSNYIGTYVWLSDPSIYNYNVITREQYFNFGKESKVWNRKKDA
B6: PF3D7_0505600, homolog of SWC5 (protein, UniProt Q8I446 1-333)
chain: MATILTMQFPSSDEEDEDYFVDEENDNDDEDDDDNNNNNNNNEHNNNEHNNDQHNNNVHNNDQHNNNHMKTIRKKRKGRCKDIKNSIKKSIIKEKIEKTYKDINLEYKQLYSHESNIRNGDFLLQFHKKDPQICKKYNSIDKLYNHLNKYCSIEQDNKNIKNNNQQQNDNHVNNDEDHYSQHYITMKEYKKKSRNDQYVNEIHNNHLVKSALDNFYDNNSIHVEKKYMYAGKIFTIKKKIDKTSASYKRYLKTQDKINIGGNFSNIDELIQNIQEQKQINTIDKSSEDWKQYKLINLVDDDKLKKNQHYLENKFFEENVERRVYENKIKKLHK
B7: PF3D7_1415900, homolog of SWC6 (protein, UniProt Q8ILT7 1-146)
chain: MGRRPLDKNLKKEKNVKVIKKRKRKKGSDSDDDDDDIEIANTNVPINKNVSTKFKQREKVDINLILAQDEEDAFKTKTYCWTKVNAGNTSLVKRKLCTVCGFEGKYKCLKCFEHKPTSFVRYTCSLNCKKIHDESSCCKSKMLGTW
B8: PfBDP1 (PF3D7_1033700), homolog of Bdf1 (protein, UniProt Q8IJ72 1-488)
chain: MMLEDFNTLPLIKSIREDSLDDVLKFLENNYKDYEVNENGEAKKTIELVDKQTQATPLFYVTARKSDEESVEISKLIIEKYAICNPISKDLMKQTCLFYAAREGHLNLCNYLIEKGCNPNDQDNFGQTCLFYASREGKTDCVLTLIKKGANPNLLDLNKQTCLFYACRDGRYDTVKCLLENGVNPSIKDAQRRTALTFAKGNGHNNIINLLKNVGTLSRSSIDSNAQLGNITMLRRNSSSYIAASSPNESNLNNLTVQAENVSNVNLKTEDNQLRKKYKLQYKPLSDEDPLLWVDAPLIKIKEFERKFPELALWPRNVSQSNVEVNNANDAFNKQWYLLANQLILSLSKYEGGHIFEKLVDAKKQNCPDYYDVIKNPMSFSCIKTKLKKGQYAYPSEFVKDVQLIFDNCSLYNTSNSVVAITGKNIETYFNNQLIVMGYNNFILKEKKINDMLKLVEEENIKWSKEKEDQIEEIDELENNQEDSSKKD
B9: PfH2B.Z (protein, UniProt Q8IBV7 1-123)
chain: MSGKGPAQKSQAAKKTAGKTLGPRHKRKRRTESFSLYIFKVLKQVHPETGVTKKSMNIMNSFINDIFDRLVTEATRLIRYNKKRTLSSREIQTAVRLLLPGELSKHAVSEGTKAVTKYTTSAA

What follows are binders tested against T1, PfEAF2::GFP (endogenous PfEAF2 tagged with GFP) (P. falciparum (endogenous in 3D7 parasites)) (assay: affinity purification with mass spectrometry; single-step pulldown of PfEAF2::GFP with GFP-trap beads from lysates of 10^9 parasites; LC-MS/MS, same SAINT thresholds; three replicates).

| Binder | binding |
| --- | --- |
| B1 | binds |
| B2 | binds |
| B3 | binds |
| B4 | binds |
| B5 | binds |
| B6 | binds |
| B7 | binds |
| B8 | binds |
| B9 | binds |

No constants are given. Whether binding was seen depends on the method and setting. Binding seen in cells or lysates may run through a third protein. These calls come from enrichment with a bait or labelling near it, and not all partners need be listed. Where a sequence is shown, tags or fusion partners need not be part of it.
